Like-named read-outs stand apart in the source and are kept apart here.
System: 20S proteasomes
Experiment: Proteasome digestion assay of 26-mer synthetic peptide substrates, fragments analysed by electrospray mass spectrometry
Assay type: biochemical, mouse
Conditions: for amount of peptide fragment, relative percentage of the total intensity of the peptide fragments in the spectrum: fragments of Sendai or MCF 26-mer substrate; for Intensity as a percentage of the total amount of intensity of the peak fragments: fragments of substrates 5A Moloney, 5B AKV, 5C Friend MuLV

Substance	amount of peptide fragment, relative percentage of the total intensity of the peptide fragments in the spectrum (digestion time 1 h)	amount of peptide fragment, relative percentage of the total intensity of the peptide fragments in the spectrum (digestion time 4 h)	other results
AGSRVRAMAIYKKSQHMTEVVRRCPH [26-mer substrate, P53, reference compound]			correct C-terminus: no
APGNYPAL [proteasome fragment of Sendai substrate]	5%	12%	
ASWKPSSSWDYITVSNNLTSDQA [proteasome fragment of substrate 5B]			Intensity as a percentage of the total amount of intensity of the peak fragments (digestion time 1 h): 29%
ASWKPSSSWDYTTV [proteasome fragment of substrate 5B]			Intensity as a percentage of the total amount of intensity of the peak fragments (digestion time 4 h): 30%
AYWKPSSSWDFITV [proteasome fragment of substrate 5A]			Intensity as a percentage of the total amount of intensity of the peak fragments (digestion time 1 h): 14%
AYWKPSSSWDYITVD [proteasome fragment of substrate 5C]			Intensity as a percentage of the total amount of intensity of the peak fragments (digestion time 1 h): 8%; Intensity as a percentage of the total amount of intensity of the peak fragments (digestion time 4 h): 20%
AYWKPSSSWDYITVDNNLTTNQA [proteasome fragment of substrate 5C]			Intensity as a percentage of the total amount of intensity of the peak fragments (digestion time 1 h): 6%
DGPAGQAEPDRAHYNIVTFCCKCDST [26-mer substrate, HPV E7, reference compound]			correct C-terminus: yes
EFAPGNYPAL [proteasome fragment of Sendai substrate]	5%	7%	
FAPGNYPAL [reference compound]	3%	15%	
FESQQGWFEGL [proteasome fragment of MCF substrate]	6%	7%	amount of peptide fragment, relative percentage of the total intensity of the peptide fragments in the spectrum (digestion time 24 h): 28%
FESQQGWFEGLFNKS [proteasome fragment of MCF substrate]	26%	22%	amount of peptide fragment, relative percentage of the total intensity of the peptide fragments in the spectrum (digestion time 24 h): 15%
FESQQGWFEGLFNKSPWFTT [proteasome fragment of MCF substrate]	5%		
FESQQGWFEGLFNKSPWFTTL [proteasome fragment of MCF substrate]	5%	6%	
FNKSPWFTTL [proteasome fragment of MCF substrate, 10-mer]		6%	amount of peptide fragment, relative percentage of the total intensity of the peptide fragments in the spectrum (digestion time 24 h): 22%
FNKSPWFTTLI [proteasome fragment of MCF substrate, 11-mer]	5%	5%	amount of peptide fragment, relative percentage of the total intensity of the peptide fragments in the spectrum (digestion time 24 h): 35%
FNKSPWFTTLISTI [proteasome fragment of MCF substrate]	6%	6%	
FNKSPWFTTLISTIM [proteasome fragment of MCF substrate]		6%	
GEFAPGNYPAL [proteasome fragment of Sendai substrate, N-terminally elongated 11-mer]	27%	20%	amount of peptide fragment, relative percentage of the total intensity of the peptide fragments in the spectrum (digestion time 24 h): 38%

Substance	amount of peptide fragment, relative percentage of the total intensity of the peptide fragments in the spectrum (digestion time 1 h)	amount of peptide fragment, relative percentage of the total intensity of the peptide fragments in the spectrum (digestion time 4 h)	other results
GENGRKTRSAYERMCNILKGKFQTAA [26-mer substrate, Influenza NP, reference compound]			correct C-terminus: yes
GESRDLPSGQGINNLDNLRDYLDGSV [26-mer substrate, SV40 T, reference compound]			correct C-terminus: yes
ILKDPVHGEFAPG [proteasome fragment of Sendai substrate]		8%	
ILKDPVHGEFAPGNYPAL [proteasome fragment of Sendai substrate]	46%	20%	amount of peptide fragment, relative percentage of the total intensity of the peptide fragments in the spectrum (digestion time 24 h): 38%
ILKDPVHGEFAPGNYPALWSYAMGVA [26-mer substrate, Sendai NP, reference compound]			correct C-terminus: yes
KDPVHGEFAPG [proteasome fragment of Sendai substrate]		9%	
KFGIETMYPALGLHEFAGELSTLESL [26-mer substrate, Measles NP, reference compound]			correct C-terminus: yes
LISTIM	14%	14%	
PGNYPAL [proteasome fragment of Sendai substrate]	7%	9%	amount of peptide fragment, relative percentage of the total intensity of the peptide fragments in the spectrum (digestion time 24 h): 14%
PSSSWDFITV			Intensity as a percentage of the total amount of intensity of the peak fragments (digestion time 1 h): 23%; Intensity as a percentage of the total amount of intensity of the peak fragments (digestion time 4 h): 36%; Intensity as a percentage of the total amount of intensity of the peak fragments (digestion time 24 h): 28%
PSSSWDYITV [proteasome fragment of substrate 5B]			Intensity as a percentage of the total amount of intensity of the peak fragments (digestion time 4 h): 17%; Intensity as a percentage of the total amount of intensity of the peak fragments (digestion time 24 h): 25%
PSSSWDYITVD [proteasome fragment of substrate 5C]			Intensity as a percentage of the total amount of intensity of the peak fragments (digestion time 4 h): 20%; Intensity as a percentage of the total amount of intensity of the peak fragments (digestion time 24 h): 31%
PSSSWDYITVDNNLTTNQA [proteasome fragment of substrate 5C]			Intensity as a percentage of the total amount of intensity of the peak fragments (digestion time 1 h): 5%
PVHGEFAPGNYPAL [proteasome fragment of Sendai substrate]	7%		amount of peptide fragment, relative percentage of the total intensity of the peptide fragments in the spectrum (digestion time 24 h): 10%
PWFTTL	13%	12%	
PWFTTLI [proteasome fragment of MCF substrate]	13%	10%	
PWFTTLISTI [proteasome fragment of MCF substrate]	7%	6%	
REARVSSSPVNSLRNVVAIAAGIVVS [26-mer substrate, E. coli P9, reference compound]			correct C-terminus (correct C-terminal residue of the CTL-epitope generated from the 26-mer substrate): no
RQEYAIPVGPVFPPGMNWTELITNYS [26-mer substrate, Rotavirus VP-6, reference compound]			correct C-terminus: yes

Reference: patent publication US20030186355A1, “Methods for selecting and producing t cell peptide epitopes and vaccines incorporating said selected epitopes” (priority 2000, published 2003)
